Source: patent US9868746B2, “Substituted 5-aminothieno[2,3-C]pyridazine-6-carboxamide analogs as positive allosteric modulators of the muscarinic acetylcholine receptor M4” (Vanderbilt University, priority 2012, dated 2018)

By UniProt entry, the sequences of proteins in these tests, tags left out.
UniProt P08173, whole entry: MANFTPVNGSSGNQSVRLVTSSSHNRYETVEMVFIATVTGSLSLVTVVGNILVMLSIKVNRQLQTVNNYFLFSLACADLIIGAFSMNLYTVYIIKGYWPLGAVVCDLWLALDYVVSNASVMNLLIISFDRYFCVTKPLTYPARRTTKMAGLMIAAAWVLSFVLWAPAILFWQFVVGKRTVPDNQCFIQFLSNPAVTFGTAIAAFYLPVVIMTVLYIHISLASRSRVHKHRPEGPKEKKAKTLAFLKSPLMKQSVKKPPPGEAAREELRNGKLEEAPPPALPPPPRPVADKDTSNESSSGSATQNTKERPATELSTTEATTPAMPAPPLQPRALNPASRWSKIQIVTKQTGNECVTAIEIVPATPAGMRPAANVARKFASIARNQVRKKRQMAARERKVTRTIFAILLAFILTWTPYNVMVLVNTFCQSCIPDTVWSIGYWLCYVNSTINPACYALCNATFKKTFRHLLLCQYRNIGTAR

Biological target: mAChR M4 (Homo sapiens, UniProt P08173)
Assay: mAChR M4 cell-based functional assay (calcium mobilization, potentiation of EC20 acetylcholine response)

Emax (%)* (% ACh maximum at 30 μM): 62% | pEC50 (mAChR M4 cell-based functional assay, >10,000 estimated for low potency compounds without plateau): 7.62
SMILES: Cc1nnc2sc(C(=O)NC3CN(C(=O)Nc4ccc(F)cc4)C3)c(N)c2c1C [Example B351]

pEC50: −log10 of the molar value. The structures given here were assigned with low confidence; some may be wrong.
